Source: paper doi:10.1101/2022.12.13.520363
Results are given in words; binding and its absence hold for the method and conditions named. In cells and extracts the contact can be indirect. These calls come from enrichment with a bait or labelling near it, and not all partners need be listed.

Molecular target: NSP5-BioID2
Assay: proximity labelling

B1: VP1 (rotavirus SA11, from infection) (enzyme, UniProt O37061 1-1088)
chain: MGKYNLILSEYLSFIYNSQSAVQIPIYYSSNSELENRCIEFHSKCLENSKNGLSLRKLFVEYNDVIENATLLSILSYSYDKYNAVERKLVKYAKGKPLEADLTVNELDYENNKMTSELFPTAEEYTDSLMDPAILTSLSSNLNAVMFWLEKHENDVAEKLKVYKRRLDLFTIVASTINKYGVPRHNAKYRYEYDVMKDKPYYLVTWANSSIEMLMSVFSHDDYLIAKELIVLSYSNRSTLAKLVSSPMSILVALVDINGTFITNEELELEFSNKYVRAIVPDQTFDELNQMLDNMRKAGLVDIPKMIQDWLVDRSIEKFPLMAKIYSWSFHVGFRKQKMLDAALDQLKTEYTENVDDEMYREYTMLIRDEVVKMLEEPVKHDDHLLRDSELAGLLSMSSASNGESRQLKFGRKTIFSTKKNMHVMDDMANERYTPGIIPPVNVDKPIPLGRRDVPGRRTRIIFILPYEYFIAQHAVVEKMLIYAKHTREYAEFYSQSNQLLSYGDVTRFLSNNTMVLYTDVSQWDSSQHNTQPFRKGIIMGLDILANMTNDAKVLQTLNLYKQTQINLMDSYVQIPDGNVIKKIQYGAVASGEKQTKAANSIANLALIKTVLSRISNKHSFATKIIRVDGDDNYAVLQFNTEVTKQMIQDVSNDVRETYARMNAKVKALVSTVGIEIAKRYIAGGKIFFRAGINLLNNEKRGQSTQWDQAAILYSNYIVNRLRGFETDREFILTKIMQMTSVAITGSLRLFPSERVLTTNSTFKVFDSEDFIIEYGTTVDEVYIQRAFMSLSSQKSGIADEIAASSTFKNYVTRLSEQLLFSKNNIVSRGIALTEKAKLNSYAPISLEKRRAQISALLTMLQKPVTFKSSKITINDILRDIKPFFTVSDAHLPIQYQKFMPTLPDNVQYIIQCIGSRTYQIEDDGSKSAISRLISKYSVYKPSIEELYKVISLHENEIQLYLISLGIPKIDADTYVGSKIYSRDKYRILESYVYNLLSINYGCYQLFDFNSPDLEKLIRIPFKGKIPAVTFILHLYAKLEVINYAIKNGSWISLFCNYPKSEMIKLWKKMWNITSLRSPYTNANFFQE
binding: binds
